Measurements as given in PMC10266913.
Results are given in words; binding and its absence hold for the method and conditions named. Binding seen in cells or lysates may run through a third protein. Some results given as binding are weak or reduced against the parent protein; the word gives no strength.

Protein sequences, listed by entry. Tags and fused reporters are not part of them.
UniProt Q86U44: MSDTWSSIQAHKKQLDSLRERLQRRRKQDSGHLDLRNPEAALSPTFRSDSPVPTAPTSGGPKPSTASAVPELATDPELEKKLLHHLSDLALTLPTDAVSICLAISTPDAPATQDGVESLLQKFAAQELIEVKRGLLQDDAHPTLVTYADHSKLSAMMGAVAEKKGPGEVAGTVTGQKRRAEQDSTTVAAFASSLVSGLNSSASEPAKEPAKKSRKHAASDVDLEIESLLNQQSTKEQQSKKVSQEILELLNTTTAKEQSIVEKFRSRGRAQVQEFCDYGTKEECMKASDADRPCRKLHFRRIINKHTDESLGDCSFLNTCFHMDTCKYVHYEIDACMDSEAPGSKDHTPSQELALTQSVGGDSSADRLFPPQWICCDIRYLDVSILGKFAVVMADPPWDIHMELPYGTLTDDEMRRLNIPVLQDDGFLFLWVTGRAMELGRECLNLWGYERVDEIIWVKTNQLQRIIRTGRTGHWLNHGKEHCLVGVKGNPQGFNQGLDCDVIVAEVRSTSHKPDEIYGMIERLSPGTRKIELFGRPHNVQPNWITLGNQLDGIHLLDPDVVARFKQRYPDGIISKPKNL

Target: T1, DiGeorge syndrome critical region 8 (DGCR8) (human (endogenous in SCAPs)) (UniProt Q8WYQ5)
T1 sequence: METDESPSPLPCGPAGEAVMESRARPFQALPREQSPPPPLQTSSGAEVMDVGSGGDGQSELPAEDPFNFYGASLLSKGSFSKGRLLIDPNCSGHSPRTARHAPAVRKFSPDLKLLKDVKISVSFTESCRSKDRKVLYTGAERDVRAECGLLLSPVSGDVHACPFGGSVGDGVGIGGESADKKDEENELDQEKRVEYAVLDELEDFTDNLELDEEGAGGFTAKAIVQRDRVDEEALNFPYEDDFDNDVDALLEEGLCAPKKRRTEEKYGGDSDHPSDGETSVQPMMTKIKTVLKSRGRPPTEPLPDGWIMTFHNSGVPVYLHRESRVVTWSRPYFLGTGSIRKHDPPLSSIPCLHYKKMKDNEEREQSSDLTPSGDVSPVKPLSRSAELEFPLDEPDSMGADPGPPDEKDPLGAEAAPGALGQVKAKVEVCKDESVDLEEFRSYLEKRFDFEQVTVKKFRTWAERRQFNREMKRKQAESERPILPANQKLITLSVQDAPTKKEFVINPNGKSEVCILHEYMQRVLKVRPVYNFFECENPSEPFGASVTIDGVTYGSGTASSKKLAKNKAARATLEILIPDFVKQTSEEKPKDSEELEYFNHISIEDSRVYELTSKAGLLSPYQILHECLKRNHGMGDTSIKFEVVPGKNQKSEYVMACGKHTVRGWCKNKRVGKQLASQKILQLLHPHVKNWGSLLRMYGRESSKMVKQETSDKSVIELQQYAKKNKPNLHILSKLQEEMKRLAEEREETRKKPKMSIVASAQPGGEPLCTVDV
Test: co-IP; SCAPs lysed with IP lysis buffer (Invitrogen); antibodies to METTL3 and DGCR8, western blot; with and without RNase (RNase attenuated the coprecipitation)

binding: binds
Substance: Methyltransferase-like 3 (METTL3) (from UniProt Q86U44 1-580)
